Assay results published in PMC8519309.

What was measured:
[1] = biological target: T1, OsLIC-GST fusion protein (rice (Oryza sativa)) (UniProt Q5Z807); experiment: pull-down; semi-in vivo pull-down: OsLIC-GST from E. coli as bait, total protein extracts of wild-type rice seedlings; OsRELA detected by immunoblot with anti-OsRELA polyclonal antibodies; only the target purified
T1 sequence: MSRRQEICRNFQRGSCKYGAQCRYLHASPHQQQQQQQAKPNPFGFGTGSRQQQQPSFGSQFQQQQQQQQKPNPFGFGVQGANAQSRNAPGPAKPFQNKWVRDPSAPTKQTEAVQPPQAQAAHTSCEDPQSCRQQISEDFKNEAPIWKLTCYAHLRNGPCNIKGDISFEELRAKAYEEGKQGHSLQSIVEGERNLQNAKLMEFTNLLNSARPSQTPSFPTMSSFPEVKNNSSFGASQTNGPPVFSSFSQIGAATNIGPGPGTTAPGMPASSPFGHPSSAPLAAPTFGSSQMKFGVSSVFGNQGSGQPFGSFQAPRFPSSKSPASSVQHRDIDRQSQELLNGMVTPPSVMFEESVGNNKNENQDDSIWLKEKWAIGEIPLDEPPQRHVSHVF

[2] = biological target: BD-OsRELA (1–1365 aa) (rice (Oryza sativa)) (UniProt Q0D4N6); experiment: two-hybrid; pGBKT7 bait and pGADT7 prey cotransformed into yeast AH109; growth on SD-Trp/-Leu/-His/-Ade; tenfold serial dilutions
[3] = biological target: BD-OsRELA-T2 (200–643 aa) (rice (Oryza sativa)); experiment: as above
[4] = biological target: BD-OsRELA-T3 (1173–1365 aa) (rice (Oryza sativa)); experiment: as above
[5] = biological target: BD-OsRELA-T4 (1–1172 aa) (rice (Oryza sativa)); experiment: as above
[6] = biological target: BD-OsRELA-T1 (1–199 aa) (rice (Oryza sativa)); experiment: as above
[7] = biological target: OsRELA-NY (rice (Oryza sativa)); experiment: split reporter; BiFC with split YFP (pSPYNE/pSPYCE) in rice protoplasts, confocal microscopy

OsRELA (endogenous, wild-type rice seedlings)
binding [1]: binds

B1: OsLIC-AD (protein, UniProt Q5Z807 1-390)
chain: T1 sequence
binding [2]: binds | binding [3]: no binding | binding [4]: binds | binding [5]: no binding | binding [6]: no binding

B2: OsLIC-CY (protein, UniProt Q5Z807 1-390)
chain: T1 sequence
binding [7]: binds

B3: OsGSK2 (protein, UniProt Q60EZ2 1-402)
chain: MDQPAPAPEPMLLDAQPPAAVACDKKQQEGEAPYAEGNDAVTGHIISTTIGGKNGEPKRTISYMAERVVGTGSFGIVFQAKCLETGETVAIKKVLQDRRYKNRELQLMRAMDHPNVISLKHCFFSTTSRDELFLNLVMEYVPETLYRVLKHYSNANHRMPLIYVKLYMYQLFRGLAYIHTVPGVCHRDVKPQNVLVDPLTHQVKLCDFGSAKTLVPGEPNISYICSRYYRAPELIFGATEYTTSIDIWSAGCVLAELLLGQPLFPGESAVDQLVEIIKVLGTPTREEIRCMNPNYTEFRFPQIKAHPWHKVFHKRMPPEAIDLASRLLQYSPSLRCTALDACAHPFFDELREPNARLPNGRPFPPLFNFKHELANSSQELISRLIPEHVRRQATHNFFNTGS
binding [2]: no binding

B4: DLT (protein, UniProt Q9LWU9 1-617)
chain: MLAGCSFSSSRHQMSTAQRFDILPCGFSKRGSRGDGAAPRVAGDARSGATTCSFRTHPAPPVTQSVSWGAKPEPGGNGNGAHRAVKRAHDEDAVEEYGPIVRAKRTRMGGDGDEVWFHQSIAGTMQATAAGEGEEAEEEKVFLVPSAAAFPHGMAAAGPSLAAAKKEEYSKSPSDSSSSSGTDGGSSAMMPPPQPPEFDARNGVPAPGQAEREALELVRALTACADSLSAGNHEAANYYLARLGEMASPAGPTPMHRVAAYFTEALALRVVRMWPHMFDIGPPRELTDDAFGGGDDDAMALRILNAITPIPRFLHFTLNERLLREFEGHERVHVIDFDIKQGLQWPGLLQSLAARAVPPAHVRITGVGESRQELQETGARLARVAAALGLAFEFHAVVDRLEDVRLWMLHVKRGECVAVNCVLAMHRLLRDDAALTDFLGLARSTGATILLLGEHEGGGLNSGRWEARFARALRYYAAAFDAVDAAGLPEASPARAKAEEMFAREIRNAVAFEGPERFERHESFAGWRRRMEDGGGFKNAGIGEREAMQGRMIARMFGPDKYTVQAHGGGGSGGGEALTLRWLDQPLYTVTAWTPAGDGAGGSTVSASTTASHSQQS
binding [2]: no binding

B5: OsBZR1 (protein, UniProt Q7XI96 1-298)
chain: MTSGAAAAGRTPTWKERENNKRRERRRRAIAAKIFTGLRALGNYNLPKHCDNNEVLKALCREAGWVVEDDGTTYRKGCKPPPSSAGGASVGMSPCSSTQLLSAPSSSFPSPVPSYHASPASSSFPSPSRIDNPSASCLLPFLRGLPNLPPLRVSSSAPVTPPLSSPTASRPPKIRKPDWDVDPFRHPFFAVSAPASPTRGRRLEHPDTIPECDESDVSTVDSGRWISFQMATTAPTSPTYNLVNPGASTSNSMEIEGTAGRGGAEFEFDKGRVTPWEGERIHEVAAEELELTLGVGAK
binding [2]: no binding

No constants are given. Whether binding was seen depends on the method and setting. For some of these results: A result given as binding can be weak or reduced; the word gives no strength. For some of these results: Sequences can lack the tags named with a protein. For some of these results: Binding seen in cells or lysates may run through a third protein.
